Earlier results, collected in patent publication US20210379148A1, “REGULATING MUSCLE PHYSIOLOGY AND ENERGY METABOLISM USING CRYM” (University Of Maryland, Baltimore, priority 2020, published 2021).
Where two headings read alike, the source gives them in different places. For at least one compound, name, drawing or mass did not settle the structure.

Test system: CRYM mRNA

| SMILES | expression of CRYM mRNA (chemical alone) | expression of CRYM mRNA (NOG protein co-treated with entinostat, dorsomorphin and 4-(5-benzo(1,3)dioxol-5-yl-4-pyridin-2-yl-1H-imidazol-2-yl)benzamide) |
| --- | --- | --- |
| CCN(CC)CCNC(=O)c1c(C)[nH]c(/C=C2\C(=O)Nc3ccc(F)cc32)c1C [Sunitinib] | Sunitinib results in increased expression of CRYM mRNA | – |
| c1cc(-c2cnn3cc(-c4ccc(OCCN5CCCCC5)cc4)cnc23)ccn1 [dorsomorphin] | – | pyridin-2-yl-1H-imidazol-2-yl)benzamide] results in increased |
